The subject of this data set is chronically hypoxic piglets. As to the kind of experiment: In vivo hemodynamics in newborn piglets exposed to 10 days of chronic hypoxia. The source says:
A total of 17 hypoxic and 17 control piglets were studied. Control animals were studied on the day of arrival from the farm at 12 days of age. The hypoxic pigs (2 days old) were placed in a normobaric hypoxic chamber for 10 to 11 days. Normobaric hypoxia was provided using compressed air and nitrogen to create inspired oxygen of 8-11% (PO2 60-72 Torr) and CO2 was maintained at 3-6 Torr by absorption with soda lime. The animals were monitored with daily weights and physical exam twice daily. They were fed ad lib with sow milk replacer from a feeding device in the cage.
Six of the seventeen hypoxic piglets were supplemented with oral L-citrulline starting on the first day of the hypoxic exposure. L-citrulline supplementation was provided at a dose of 0.13-gm/kilogram body weight twice a day using a syringe to deliver the dose orally. If it appeared to study personnel that the piglet had not ingested the majority of a dose, it was repeated. L-citrulline was mixed using a preparation (Sigma Pharmaceuticals, St. Louis, Mo., United States of America, 98% purity) at a concentration of 0.13 grams per milliliter of distilled water and when completely dissolved passing this solution through a 0.20 Micron filter.
In vivo hemodynamics were measured in 6 of the control piglets and all of the hypoxic piglets. For these measurements, the animals were weighed and then preanesthetized with Ketamine (15 mg/kg) and Acepromazine (2 mg/kg) intramuscularly. A tracheostomy, venous and arterial catheters, and thermistor were then placed as previously described using intravenous pentobarbital for sedation. Fike, C. D. et al., J Appl Physiol (2000) 88:1797-1803. Pulmonary artery pressure, left ventricular end diastolic pressure, and cardiac output were measured. Cardiac output was measured by a thermodilution technique (model 9520 thermodilution cardiac output computer, Edwards Laboratory, Irvine, Calif., United States of America) using a thermistor in the aortic arch and the left ventricle catheter as an injection port. Cardiac output was measured at end expiration as the mean of three injections of 3 ml of normal saline (0° C.). Exhaled NO was measured as described below. During the in vivo measurements, animals were ventilated with room air using a piston-type ventilator at a tidal volume of 15-20 cc/kg, end-expiratory pressure of 2 mmHg, and a respiratory rate of 15-20 breaths per minute.
Pulmonary vascular resistance was calculated from the in vivo hemodynamic measurements: (Pulmonary arterial pressure−left ventricular end diastolic pressure)÷(Cardiac output/body weight).
Data are presented as means±SE. The one-way ANOVA with Fisher's protected least significant difference (PLSD) post hoc comparison test was used to compare data between control, untreated hypoxic and L-citrulline treated hypoxic animals. A p-value less than 0.05 was considered significant. Meier, U., Pharm Stat (2006) 5:253-263.

The mark [1] stands for this setting: chronically hypoxic piglets, oral L-citrulline 0.13 g/kg twice a day, mean ± SEM, N = 6.

As for `NC(=O)NCCC[C@H](N)C(=O)O` [L-citrulline], the paO2 (L-citrulline treated hypoxic piglets) came out at 78±7 Torr. Under setting [1], the “Aortic Pressure” value turned out to be 97 ± 6 cm H2O, the “Arterial pH” value was 7.36 ± 0.02, the “Cardiac Output” value came out at 270 ± 41 mL/min/kg and the LVEDP turned out to be 7.2 ± 0.4 cmH20. Moreover, the “Weight at 12 days of age” value under setting [1] turned out to be 2.6 ± 0.09 kg.

Source of the values: patent US20090312423A1, “THERAPEUTIC TREATMENT FOR LUNG CONDITIONS” (Vanderbilt University, priority 2008, published 2009).
